The other results are listed elsewhere or left out. Shown are side measurements of this screen, not its main read-out; they come without a call. Most of these compounds were active or inconclusive in the main read-out, so they are no random draw. Potencies come from curve fits of mixed quality, noted in brackets.
Experiment: qHTS Assay for Modulators of Lamin A Splicing
Conditions: HeLa LMNA splicing GFP/RFP minigene ratio, 48 h
Method in brief: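 S3 HeLa cells stably expressing lamin A-EGFP splicing minigene plus DsRed2, 600 cells/well, 48 h compound exposure at 37C. Laser-scanning cytometry; analysed as GFP (500-530 nm)/RFP (575-640 nm) total intensity ratio; 0.5% DMSO vehicle.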

[1] = measured here: RFP viability control channel
[2] = measured here: GFP splicing reporter channel

Row | Compound | AC50 [1] | AC50 [2]
1 | Cc1ccc(Cn2c(=O)n(-c3ccccc3)c(=O)c3ccc(C(=O)NCc4ccco4)cc32)cc1 | 3.16 µM [falling, partial curve, poor fit] | 
2 | Cc1onc(-c2c(F)cccc2Cl)c1C(=O)c1ccccc1O | 22.4 µM [falling, single point] | 
3 | CCN1C(=O)c2cccc3c(NC(=O)c4ccc(S(=O)(=O)N5CCOCC5)cc4)ccc1c23 | 20 µM [rising, partial curve, poor fit] | 
4 | COCCn1c(SC(C)C(=O)Nc2ncc(Cl)cc2Cl)nc2ccccc21 (stereo not drawn) | 7.08 µM [rising, partial curve] | 
5 | CC1CCN(S(=O)(=O)c2cccc(C(=O)NCc3cccs3)c2)CC1 | 35.5 µM [rising, single point] | 
6 | O=C(NCCn1cc(SCc2ccc(F)cc2)c2ccccc21)c1c(F)cccc1F | 31.6 µM [rising, single point] | 
7 | CC1(c2ccccc2)NC(=O)N(CC(=O)Nc2cccc(C#N)c2)C1=O (stereo not drawn) |  | 25.1 µM [rising, single point]
8 | COc1ccc(NC(=S)N2CCN(c3ccccn3)CC2)cc1 | 22.4 µM [rising, partial curve, poor fit] | 
9 | CCCCCOc1ccc(Cn2ccnc2)cc1[N+](=O)[O-] | 22.4 µM [rising, partial curve] | 12.6 µM [rising, partial curve]
10 | COc1cc(NC(=O)c2cc(-c3cccnc3)nc3ccc(Br)cc23)cc(OC)c1 |  | 0.00891 µM [falling, full curve, poor fit]
11 | COc1ccc(C)cc1S(=O)(=O)Nc1ccc(F)cc1 | 0.0398 µM [falling, full curve] | 
12 | CSc1ccc(/C=N/N2CCN(c3ccccc3)CC2)cc1 | 2 µM [rising, partial curve, poor fit] | 
13 | Cc1ccc(-c2nn3c(C)nnc3c3ccccc23)cc1S(=O)(=O)N1CCN(CCO)CC1 | 14.1 µM [rising, single point] | 12.6 µM [rising, single point]
14 | COc1cc2c(cc1O)C(SC)=NC(C)(C)C2 | 17.8 µM [falling, single point] | 14.1 µM [falling, single point]
15 | O=C(CSc1nnc(-c2ccc(F)cc2)c2ccccc12)NCC1CCCO1 (stereo not drawn) | 12.6 µM [rising, partial curve] | 
16 | S=C(Nc1ccc(Cl)c(Cl)c1)NC1CCCCC1 | 25.1 µM [rising, single point] | 
17 | CCOc1ccccc1NS(=O)(=O)c1ccc(Br)s1 | 35.5 µM [rising, single point] | 22.4 µM [rising, single point]
18 | Cc1c(Cl)c(-c2n[nH]c(=S)n2CC(C)C)nn1C | 31.6 µM [rising, single point] | 
19 | COC(=O)c1sccc1NC(=S)N1CCN(c2ccccc2)CC1 | 35.5 µM [rising, single point] | 

Shown as comma-separated lines: part of the list above
Row,Compound,AC50 [1],AC50 [2]
3,CCN1C(=O)c2cccc3c(NC(=O)c4ccc(S(=O)(=O)N5CCOCC5)cc4)ccc1c23,"20 µM [rising, partial curve, poor fit]",
4,COCCn1c(SC(C)C(=O)Nc2ncc(Cl)cc2Cl)nc2ccccc21 (stereo not drawn),"7.08 µM [rising, partial curve]",

Next entries follow.

Row | Compound | AC50 [1] | AC50 [2]
20 | Cc1nc(-c2cccc(NC(=O)Cc3ccccc3)c2)cs1 | 35.5 µM [rising, partial curve, poor fit] | 
21 | Cc1ccsc1/C=N\NC(=O)c1n[nH]c2c1CCC2 | 2.51 µM [rising, full curve, poor fit] | 
22 | COC(=O)c1sccc1NC(=O)c1ccc(OC)cc1 | 11.2 µM [rising, partial curve] | 
23 | COc1cc(Cl)c(C)cc1NC(=O)c1cc2ccc3cccnc3c2[nH]1 | 20 µM [falling, partial curve, poor fit] | 22.4 µM [falling, partial curve]
24 | Cc1cccnc1NC(=O)COc1ccc2oc3c(c2c1)CCCC3 | 17.8 µM [rising, single point] | 
25 | CO[C@H]1[C@H](O[C@H]2O[C@@H](C)[C@@H](O[C@@H]3C[C@](C)(O)[C@H](OC(=O)CC(C)C)[C@H](C)O3)[C@@H](N(C)C)[C@@H]2O)[C@@H](CC=O)C[C@@H](C)[C@@H](O)/C=C\C=C/C[C@@H](C)OC(=O)C[C@H]1OC(C)=O |  | 0.000398 µM [falling, full curve, poor fit]
26 | NNC(=O)c1cc(-c2ccc(O)cc2)nc2ccc(Br)cc12 | 35.5 µM [falling, single point] | 
27 | Cc1ccc(-n2c(SCC(=O)Nc3ccc4c5c(cccc35)CC4)nc(O)c(C)c2=O)cc1 | 11.2 µM [rising, partial curve, poor fit] | 11.2 µM [rising, partial curve, poor fit]
28 | CN1CCc2cc(Cl)c(O)cc2C(c2ccccc2)C1 (stereo not drawn) |  | 0.0794 µM [falling, full curve, poor fit]
29 | C=CC[C@@H]1C=C[C@H](O/N=C/c2ccc(C(=O)N3[C@H](c4ccc(C)cc4)[C@@H](C)CC[C@H]3C(=O)OC)cc2)[C@@H](CO)O1 | 31.6 µM [rising, single point] | 
30 | COc1ccccc1Nc1nc(-c2sc(NC(=O)c3ccco3)nc2C)cs1 | 1.41 µM [falling, partial curve, poor fit] | 1.26 µM [falling, full curve, poor fit]
31 | O=C(NCc1ccc(F)cc1)Nc1cccc(Cl)c1 |  | 10 µM [falling, partial curve]
32 | Cc1ccccc1NC(=O)c1cccc(OCc2c(C)noc2C)c1 | 35.5 µM [rising, single point] | 20 µM [rising, partial curve]
33 | CCSc1nc2sc3c(c2c(=O)n1CC)CC(C)(C)OC3 |  | 0.447 µM [rising, full curve, poor fit]
34 | COc1ccc(/C=N/NC(=O)c2cc(-c3ccc4c(c3)OCO4)n[nH]2)cc1OC | 12.6 µM [rising, partial curve] | 
35 | CCCCCOP(=O)(OCCCCC)C1(NS(=O)(=O)c2ccccc2)C=CC(=O)c2ccccc21 (stereo not drawn) | 35.5 µM [rising, single point] | 
36 | CC1=C(C(=O)OC(C)C)C(c2ccc(Br)s2)NC(=O)N1C (stereo not drawn) | 12.6 µM [rising, single point] | 
37 | Cc1ccc(C)c(N(C)S(=O)(=O)c2cccc3nsnc23)c1 | 14.1 µM [rising, single point] | 25.1 µM [rising, single point]
38 | CC(C)=CCCC(C)CN1CCC(N2CCC(C(=O)N3CCCC3)CC2)CC1 (stereo not drawn) | 35.5 µM [falling, single point] | 28.2 µM [falling, single point]

Row | Compound | AC50 [1] | AC50 [2]
39 | NS(=O)(=O)c1ccc(NC(=S)N2CCN(c3ccccc3Cl)CC2)cc1 | 25.1 µM [rising, single point] | 12.6 µM [rising, partial curve]
40 | C/C(=N\NC(=O)c1ccc(N(C)C)cc1)c1ccc(C)cc1C | 1.41 µM [rising, partial curve] | 
41 | CCCCCC(=O)Nc1sc(C)c(C)c1C#N | 35.5 µM [rising, single point] | 
42 | C[C@]12CC[C@@H]3c4ccc(O)cc4CC[C@H]3[C@@H]1CCC2=O | 0.0112 µM [falling, full curve, poor fit] | 14.1 µM [rising, single point]
43 | Cc1ccc(C)c(N2CCN(C(=O)CN3CCSc4ccc(S(=O)(=O)N(C)C)cc43)CC2)c1 | 0.0282 µM [rising, full curve, poor fit] | 
44 | Cc1nc(SCc2ccc(OCCC(C)C)cc2)n[nH]1 | 10 µM [rising, partial curve] | 
45 | O=C(Nc1nnc(-c2ccccc2)o1)c1cc(Cl)sc1Cl | 0.02 µM [falling, full curve, poor fit] | 
46 | CCOC(=O)C(CC)Sc1cc(C)nc2ccc(OC)cc12 (stereo not drawn) | 1.41 µM [rising, full curve, poor fit] | 
47 | Cc1c(C(=O)Nc2ccncc2)sc2nc(-c3ccccc3)cn12 | 10 µM [rising, partial curve, poor fit] | 
48 | CN(C)c1ccc(-c2nc(NCc3cccnc3)c3ccccc3n2)cc1 | 35.5 µM [falling, single point] | 35.5 µM [falling, single point]
49 | Nc1ccc(N2CCN(c3ccccc3)CC2)c(F)c1 | 12.6 µM [rising, single point] | 
50 | O=C(Oc1c(-c2ccccc2)oc2ccccc2c1=O)c1ccccc1 | 15.8 µM [rising, partial curve, poor fit] | 5.62 µM [rising, partial curve]
51 | COc1ccc(OC)c(Cc2nnc(CCC(=O)NC(C3CC3)C3CC3)o2)c1 | 3.98 µM [rising, full curve, poor fit] | 3.16 µM [rising, single point]
52 | COc1cccc(/C=N/n2c(=O)[nH]c3ccccc32)c1OC |  | 10 µM [rising, single point]
53 | Cc1cc(NCCCN2CCOCC2)n2nc(C)c(-c3ccccc3)c2n1 | 10 µM [rising, partial curve] | 11.2 µM [rising, partial curve]
54 | CCOC(=O)Cc1csc(/N=C/c2c(O)n(-c3ccc(C)cc3C)c(=O)c3ccccc23)n1 | 12.6 µM [rising, partial curve, poor fit] | 
55 | CCOc1ccc(-c2cn(S(=O)(=O)c3cccc4nsnc34)nc2N)cc1 | 31.6 µM [rising, single point] | 
56 | COc1cc(C(=O)NNc2nc3cc4c(cc3s2)OCO4)cc(OC)c1OC | 35.5 µM [rising, single point] | 35.5 µM [rising, single point]

Reference: PubChem BioAssay AID1487 (National Center for Advancing Translational Sciences (NCATS), 2009)
